The nature of series [1]: general procedure: Boc solid-phase peptide synthesis; PAM-Gly resin. The conditions noted are these: whole synthesis, scale 0.5 mmol.
Series [2] in a line: general procedure: Boc solid-phase peptide synthesis; pMBHA resin. The conditions noted are these: whole synthesis, scale 0.5 mmol.
The nature of series [3]: general procedure: Boc solid-phase peptide synthesis; pMBHA resin (0.72 meq/g); PAM-Gly resin (0.6 meq/g). The note with it: whole synthesis, scale of the general procedure One-half mmol.

For the substance “[E^28L^41C^64]barbourin (28-73):E-C-A-D-G-L-C-C-D-O-CRFLKKGTVCRVAKGDWNDDTCTG-O-S-C-D-C-P-R-N-G-L-Y-G”, the isolated mass in series [1] turned out to be 1.6 mg.

In turn, G-C-G-K-G-D-W-P-C-A-NH2 (GCGKGDWPCA) came in with a crude mass in series [2] of 370 mg. Further, the “final HPLC purity” value in series [3] was “minimum purity of 90%”. Take “cyclic form of Mpr-L-homoarginine-Gly-Asp-Trp-Pro-Cys-NH2 • acetate polypeptide (I)”: the “final purity (method not given)” value in series [3] (HPLC, acetate) was “greater than 95%”.

For the origin of these results see EP0639202B1 (COR THERAPEUTICS, INC., priority 1992, dated 1993).
